Assay results from patent publication US4666890A, “Peptide, process for preparation thereof and use thereof” (priority 1978, dated 1987).
At least one peptide structure holds a part that was inferred or is arguable (an end, a ring closure or a residue).

Tested on: Escherichia coli No. 22
Experiment: Protective efficacy of FR-900156 in experimental infection (Escherichia coli No. 22, DDY mice)
Assay type: in vivo
Details: two days after infection

C[C@H](NC(=O)[C@@H](C)O)C(=O)N[C@H](CCC(=O)N[C@@H](CCC[C@@H](N)C(=O)O)C(=O)NCC(=O)O)C(=O)O [FR-900156 substance]
Survival/infected (0.0001 mg/mouse/day s.c. 1,4,5 and 6 days before infection): 4/10 | Survival/infected (0.0003 mg/mouse/day s.c. 1,4,5 and 6 days before infection): 8/10 | Survival/infected (0.003 mg/mouse/day s.c. 1,4,5 and 6 days before infection): 10/10
